# Test results taken from PubChem BioAssay AID1457 (National Center for Advancing Translational Sciences (NCATS), 2008).
# The list shows a part of the results, in another mix than the full data. Active and inactive are the calls of the source. Calls follow the shape of the dose curve; as a rule, active = well fitted inhibition curve with a large enough effect; inconclusive = small, poorly fitted or top-dose-only effect; inactive = no such curve, though single readings can be large or run the other way.
# Assay: qHTS Assay for Identifying the Cell-Membrane Permeable IMPase Inhibitors: Potentiation with Lithium;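 also: IP1 builds up when IMPase is blocked and the TR-FRET signal falls; plate controls were basal vehicle for no effect and high inhibitor control for full effect; nearly all actives have a fitted effect of over 50% in size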
# Settings: CHO-M1 cells, IP1 TR-FRET (IP-One), carbachol + lithium; at 59.4 µM (top of the series)
# Source text: NIH Chemical Genomics Center [NCGC]
# NIH Molecular Libraries Probe Production centers Network [MLPCN]
# Assay Submitter (PI): Wei Zheng
# Lithium has been widely used for the treatment of bipolar disorder. But lithium has a narrow therapeutic index and it can cause side effects such as thirst, weight gain, tremor, polyuria and memory problems. Although the mechanism for lithium action in treatment of bipolar disorder is still not fully understood, inhibition of inositol monophosphatase (IMPase) and the subsequent depletion of the inositol pool in living cells have been implicated as the primary therapeutic benefit of lithium therapy. […]
# To identify new cell-permeable IMPase inhibitors, we developed a cell-based IMPase assay in which the cytosolic IP1 is measured by a time-resolved fluorescence resonance energy transfer (TR-FRET) assay. […]
# A Chinese hamster ovary (CHO) cell line stably expressing the M1 receptor (CHO-M1) was obtained from ATCC and maintained in F-12 Kaighn's media (Invitrogen, Carlsbad, CA) supplemented with 10 % FBS, 100 units/ml penicillin, 100 ug/ml streptomycin and 250 ug/ml geneticin at 37C, 5% CO2 in a humidified atmosphere. […] AC50 values were determined from concentration-response data modeled with the standard Hill equation. […]
# (7) Detect the assay plate (Ex = 320, Em1 =665 and Em2 620) in a ViewLux plate reader.
row,SMILES,"activity, negative = IMPase inhibition"
1,CC(C)=CCC[C@]1(C)[C@@H](CC=C(C)C)C[C@@]2(CC=C(C)C)C(=O)[C@]1(C(=O)C(C)C)C(=O)C(CC=C(C)C)=C2O,inactive: 20.5%
